Experimental data: PMC12594604
These are yes or no findings as the source states them, for the method shown. In cells and extracts the contact can be indirect. A yes stands for co-enrichment or nearness to the bait. Other partners may have been found. Where a sequence is shown, tags or fusion partners need not be part of it.

Molecular target: T1, HA-tagged WT full-length IGFBP6 (Lenti-HA-IGFBP6) (UniProt P47880)
T1 sequence: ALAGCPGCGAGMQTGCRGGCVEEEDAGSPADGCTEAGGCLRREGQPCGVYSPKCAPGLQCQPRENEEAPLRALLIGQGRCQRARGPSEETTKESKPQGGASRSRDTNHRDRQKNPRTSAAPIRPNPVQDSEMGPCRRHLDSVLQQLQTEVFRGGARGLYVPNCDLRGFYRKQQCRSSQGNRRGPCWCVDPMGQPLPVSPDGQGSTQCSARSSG
Test: affinity purification with mass spectrometry; co-IP combined with MS of lysates of mouse cardiac fibroblasts transfected with Lenti-HA-IGFBP6 or Lenti-HA-EGFP control (legend: anti-IGFBP6 antibody)

## Tropomyosin 1 (Tpm1), endogenous (from UniProt P58771 1-284)
  binding: binds
